In PubChem BioAssay AID2685 (National Center for Advancing Translational Sciences (NCATS), 2010) one finds cell number change and AC50 data, which are given here for 58 molecules.

Some of the results follow. Shown are side measurements of this screen, not its main read-out; they come without a call. Compounds called inactive in the main read-out are mostly missing here. Words in brackets tell the shape of the fitted curve; partial curves, single points and poor fits give uncertain potencies.

A short description of this experiment: qHTS Assay for Lipid Storage Modulators in Drosophila S3 Cells.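 For cell number change: cells counted by Cell Tracker Red CMTPX staining in the red channel.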 Particulars: BODIPY lipid droplet fluorescence, 18-24 h; for cell number change: measured here: cell count max response, cells fed with added oleic acid. A digest of the protocol:
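Drosophila S3 cells loaded with oleic acid (400 uM, as added) and compounds at several concentrations; lipid droplets imaged by 488-nm laser-scanning cytometry, 500–530 nm intensity and object ratio to cell channel. Percent activity normalized to 20 uM Triacsin C.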

Where [1] appears, read: measured here: cell number channel AC50, cells fed with added oleic acid.
[2] abbreviates: measured here: lipid fluorescence (Fed channel) AC50, cells fed with added oleic acid.

In the case of `CCOc1ccc(N=c2scc(-c3ccccc3)n2CCO)cc1`, the cell number change is -83.8%. Moreover, under setting [1], the AC50 (in general, the concentration at which the activity in the assay is half-maximal) is 29.1 µM [falling, single point]. Moreover, the half-maximal activity concentration (AC50) under setting [2] was 2.91 µM [rising, partial curve].

With `S=C(NCCc1ccccc1)Nc1ccc(Cl)cc1Cl`, the cell number change is -32.4%. Also, the half-maximal activity concentration (AC50) under setting [1] was 23.1 µM [falling, partial curve]. For the same molecule, under setting [2], the AC50 was 16.4 µM [falling, partial curve, poor fit].

Consider `COc1ccc(CCNS(=O)(=O)c2ccc(F)cc2)cc1OC`, for which the cell number change was -32.6%. The AC50 under setting [1] was 18.4 µM [falling, single point].

On to `COc1ccc(NC(=O)CSc2nnc(COc3ccccc3)n2Cc2ccco2)cc1OC`, for which the cell number change is -22.3%. Under setting [2], the AC50 was 29.1 µM [falling, single point].

Turning to `COc1ccc(S(=O)(=O)NC2CCSc3ccccc32)cc1OC` (stereo not given), under setting [2], the AC50 was 6.51 µM [rising, single point].

On to `CC1(C)C2CCC1(C)C(OC(=O)CC(=O)O)C2` (stereo not given), for which the cell number change stood at 0.23%. In addition, the half-maximal activity concentration (AC50) under setting [2] is 4.11 µM [falling, single point].

Take `COc1ccc(C(=O)NC(Cc2ccc(OC(=O)c3ccc(OC)cc3)cc2)C(=O)O)cc1` (stereo not given): the cell number change stood at 36.6%. Moreover, under setting [1], the half-maximal activity concentration (AC50) was 0.0058 µM [rising, full curve, poor fit]. Further, the AC50 under setting [2] was 6.51 µM [rising, single point].

For the molecule `COc1ccc(NS(=O)(=O)c2cc(NC(=O)CC(=O)c3ccc([N+](=O)[O-])cc3)ccc2C)cc1`, the cell number change was found to be 41.5%.

On to `CCOc1nc(C)ccc1-c1noc(-c2ccccn2)n1`, for which the concentration at half-maximal activity (AC50) under setting [2] was 0.259 µM [rising, partial curve, poor fit].

`CCC(=O)Nc1ccc(C(=O)N/N=C/c2c(C)[nH]c3ccccc23)cc1`: the cell number change was -30.8%.

As for `CC(Sc1nnc(CNC(=O)c2ccco2)n1C)C(=O)Nc1nccs1` (stereo not given), the cell number change is -16.2%. Moreover, the concentration at half-maximal activity (AC50) under setting [2] was 29.1 µM [falling, single point].

As for `CCN(CC)CCCNC(=O)c1cc2c(-c3cccc(OC)c3)nn(C)c2s1`, the cell number change came to 4.49%.

Turning to `COc1ccc(Cc2nnc(SCC(=O)Nc3ccc(C)c(C)c3)o2)cc1OC`, the cell number change is -9.21%.

`O=C(CCc1nnc2ccc(NCc3ccco3)nn12)N1CCN(c2ccccc2F)CC1`: the cell number change was -24.2%. Further, under setting [2], the AC50 was 6.51 µM [rising, single point].

As for `CC1CCCCN1C(=O)CSc1nc(C2CC2)nc2c1cnn2-c1ccccc1` (stereo not given), under setting [1], the half-maximal activity concentration (AC50) was 6.51 µM [rising, partial curve, poor fit].

For the molecule `O=C(Nc1ccc(S(=O)(=O)Nc2nccs2)cc1)c1nn(-c2ccccc2)ccc1=O`, the cell number change was determined as 11.3%. Also, the AC50 under setting [2] was 0.517 µM [rising, single point].

Turning to `Cc1cc(C)n(-c2ccc(C(=O)Nc3ccc4c(c3)OCO4)cc2)n1`, the cell number change is 128%. Moreover, the AC50 under setting [1] was 0.0731 µM [rising, full curve, poor fit]. The AC50 under setting [2] was 0.092 µM [rising, full curve, poor fit].

`COc1ccc(C(=O)NC(=S)Nc2ccc(CN3CCOCC3)cc2)cc1Br`: the cell number change is 1.22%. For the same molecule, the concentration at half-maximal activity (AC50) under setting [1] is 0.058 µM [rising, full curve, poor fit]. In addition, the AC50 under setting [2] was 29.1 µM [falling, partial curve, poor fit].

As for `Cc1cc(C)n(-c2nc3c(c(=O)[nH]c(=O)n3C)n2C(C)C)n1`, the cell number change is -4.27%. Moreover, the AC50 under setting [2] is 7.31 µM [rising, single point].

On to `O=C(/C=C/c1cccc([N+](=O)[O-])c1)Nc1cccc(NC(=O)c2cccs2)c1`, for which the AC50 under setting [2] was 1.84 µM [rising, partial curve].

For the molecule `COc1ccc(-c2csc(NC(=O)CSc3nc(SC)ns3)n2)cc1`, the cell number change was -60.1%. For the same molecule, the half-maximal activity concentration (AC50) under setting [1] was 18.4 µM [falling, single point]. Under setting [2], the AC50 was 29.1 µM [falling, single point].

Consider `Cc1cc(C)nc(-n2nc(C)c(Oc3ccccc3O)c2C)n1`, for which the cell number change is -26.3%. Also, under setting [2], the half-maximal activity concentration (AC50) is 9.2 µM [falling, partial curve, poor fit].

For the molecule `CN1CCN(CCCNC(=O)Cn2nc(-c3ccccc3)ccc2=O)CC1`, the cell number change was -9.77%. Further, the AC50 under setting [2] was 0.13 µM [falling, full curve, poor fit].

With `COc1ccc(CC(=O)NNC(=O)c2nn(Cc3ccccc3)c(=O)c3ccccc23)cc1OC`, the cell number change was -49%. In addition, the half-maximal activity concentration (AC50) under setting [1] is 29.1 µM [falling, single point]. For the same molecule, the AC50 under setting [2] is 29.1 µM [falling, single point].

Turning to `O=C(Cn1cnc2ccccc21)OCC(=O)N1CCCc2ccccc21`, the cell number change was -6.71%. For the same molecule, the AC50 under setting [2] is 0.116 µM [falling, full curve, poor fit].

For `NNC(=O)c1cc2c(ccc3ccccc32)o1`, the half-maximal activity concentration (AC50) under setting [1] was 6.51 µM [falling, single point].

With `COc1cc(OC)cc(C(=O)Nc2ccc3c(c2)n(C)c(=O)n3C)c1`, the cell number change was determined as 2.49%.

Take `CN1CCN(S(=O)(=O)c2ccc(-c3ccc(S(=O)(=O)N4CCN(C)CC4)cc3)cc2)CC1`: the cell number change is 0.133%.

In the case of `ClCc1c2ccccc2cc2ccccc12`, the cell number change was found to be 14.9%. Besides, under setting [2], the concentration at half-maximal activity (AC50) is 3.66 µM [rising, partial curve].

In the case of `Cc1noc(C)c1CSc1nnc(-c2ccccc2)n1Cc1ccco1`, the cell number change was -11.7%.

As for `CC(C)C(=O)Nc1nnc(S(=O)(=O)N2c3ccccc3CC2C)s1` (stereo not given), the cell number change was found to be 3.29%.

Consider `O=C(Cc1ccccc1)Nc1cccc(N2C(=O)C=CC2=O)c1`, for which the cell number change is -96%. Further, the half-maximal activity concentration (AC50) under setting [1] is 2.06 µM [falling, partial curve]. Further, the AC50 under setting [2] was 29.1 µM [falling, single point].

Regarding `COc1ccc(C2C(C(C)=O)=C(O)C(=O)N2c2ccc(O)cc2)cc1` (stereo not given), the cell number change came to 11.8%. The concentration at half-maximal activity (AC50) under setting [2] was 0.651 µM [falling, partial curve, poor fit].

For the molecule `COc1ccc(/C(N)=N/OC(=O)c2cc(-c3ccccc3)nc3ccccc23)cc1`, the cell number change came out at 22.2%. In addition, the half-maximal activity concentration (AC50) under setting [2] was 4.61 µM [rising, partial curve, poor fit].

Regarding `COc1ccc(OC)c(C2=Nn3c(nnc3C3CCCCC3)SC2)c1`, the cell number change is -8.45%. Also, the AC50 under setting [2] is 1.03 µM [rising, single point].

Take `O=C(NCc1cccc(Cl)c1)c1ccc2c(c1)OCO2`: the cell number change was 47.9%. Besides, the AC50 under setting [1] is 0.92 µM [rising, full curve]. Moreover, under setting [2], the AC50 was 6.51 µM [rising, single point].

As to `CCOc1cc2[nH]c(=S)n(Cc3ccc(C(=O)NCC(OC)OC)cc3)c(=O)c2cc1OCC`, the cell number change is 23.4%. Besides, the AC50 under setting [2] is 1.46 µM [rising, full curve].

For the molecule `Cc1cccc(N(C(=O)Cn2nnc3ccccc32)C(C(=O)NCc2ccco2)c2ccncc2)c1C` (stereo not given), the cell number change was found to be 32.8%. Moreover, the AC50 under setting [1] was 32.6 µM [rising, single point].

On to `Cc1ccc(S(=O)(=O)N2CCOCC2)cc1NC(=O)c1cc2c(s1)CCC2`, for which the cell number change came to 93.7%. The AC50 under setting [1] is 16.4 µM [rising, single point]. In addition, the AC50 under setting [2] was 18.4 µM [rising, partial curve].

In the case of `CCN(CC)S(=O)(=O)c1ccc(C(=O)Nc2cc(C)on2)cc1`, the cell number change is 2.78%.

`COCCNC(=O)C1CCN(S(=O)(=O)N2CCC3(CC2)OCCO3)CC1`: the cell number change is -29%. For the same molecule, the AC50 under setting [2] was 29.1 µM [falling, single point].

Consider `COCC(=O)Nc1cc(C(=O)Nc2ccccc2C)ccc1Cl`, for which the cell number change stood at 44.8%. Besides, under setting [1], the AC50 was 6.51 µM [rising, partial curve]. For the same molecule, the half-maximal activity concentration (AC50) under setting [2] was 3.26 µM [rising, partial curve].

As for `Cc1cc(Nc2c(C)cccc2C)n2nc(C)nc2n1`, the cell number change came to 34.3%. The concentration at half-maximal activity (AC50) under setting [1] is 29.1 µM [rising, single point]. In addition, the AC50 under setting [2] is 29.1 µM [rising, single point].

As for `O=C(NC(=S)Nc1ccc2c(c1)C(=O)c1ccccc1C2=O)c1ccc(F)cc1`, the cell number change worked out at 6.24%. Moreover, the AC50 under setting [2] was 0.164 µM [rising, full curve, poor fit].

For the molecule `O=C(/C=C/c1cn(-c2ccccc2)nc1-c1cccc(Cl)c1)N1CCN(c2ccccn2)CC1`, the cell number change was -9.19%. Under setting [1], the AC50 is 0.00411 µM [falling, full curve, poor fit]. The half-maximal activity concentration (AC50) under setting [2] was 6.51 µM [falling, single point].

Consider `O=C(NCCc1nc2ccccc2[nH]1)/C(=C/c1ccc2c(c1)OCO2)NC(=O)c1ccccc1`, for which the cell number change was -23.9%.

Regarding `Cc1cc(N2CCCCC2)nc2ccc(NC(=O)CCC(=O)NCCC(C)C)cc12`, the cell number change was -70.5%. For the same molecule, under setting [1], the AC50 was 18.4 µM [falling, single point].

Consider `CCC1CCCCN1CCCNC(=O)c1cc2c(=O)[nH]c3ccccc3c2n1C` (stereo not given), for which the cell number change amounted to 22.7%.

As for `COc1ccc(Nc2ncnc3ccc(C)cc23)cc1`, the cell number change is -22.5%. The concentration at half-maximal activity (AC50) under setting [2] is 6.51 µM [falling, single point].

With `CCN(CC)C(=O)C1CCCN(c2ccc([N+](=O)[O-])cc2/C=N/NC(=O)c2cccc(O)c2)C1` (stereo not given), the cell number change turned out to be 25.3%. The half-maximal activity concentration (AC50) under setting [2] was 0.0206 µM [rising, full curve, poor fit].

On to `Cc1ccc(SCC(=O)Nc2ccc3c(c2)C(=O)NC3=O)cc1`, for which the cell number change is 26%. In addition, the AC50 under setting [1] was 3.66 µM [rising, single point]. The AC50 under setting [2] was 25.9 µM [rising, single point].

For `CN(C(=O)CNC(=O)c1ccc(Br)o1)C1CCCCC1`, the cell number change worked out at 4.14%. In addition, the AC50 under setting [2] was 23.1 µM [rising, single point].

Regarding `O=C(CCNC(=O)Cn1ccc2ccccc2c1=O)NCC1CCCC1c1ccccc1` (stereo not given), the cell number change is -53.5%. For the same molecule, under setting [1], the AC50 was 14.6 µM [falling, single point].

On to `CC(C)N(C)C1CCN(C(=O)Nc2ccc(Cl)c(Cl)c2)CC1`, for which the cell number change is 0.0064%.

In the case of `Cc1noc(C)c1S(=O)(=O)Nc1ccc(C(=O)N2CCN(c3ccc(Cl)cc3)CC2)cc1`, the cell number change was -30.2%. Besides, the half-maximal activity concentration (AC50) under setting [1] was 10.3 µM [falling, partial curve]. The AC50 under setting [2] is 0.651 µM [falling, full curve, poor fit].

With `O=C(Nc1ccc(F)cc1)Nn1cnnc1`, the cell number change is -24.8%. In addition, the AC50 under setting [1] was 0.58 µM [falling, full curve, poor fit].

Turning to `COc1ccc(CNC(=O)CN(C)S(=O)(=O)c2ccc3c(c2)c(=O)n(C)c(=O)n3C)cc1`, the cell number change was -23.6%. Under setting [2], the half-maximal activity concentration (AC50) was 29.1 µM [falling, partial curve].

In the case of `Cc1ccc(C2=NN=C(NC(=O)CSc3nc(C)cc(C)n3)SC2)cc1`, the cell number change was -41.4%. Moreover, the concentration at half-maximal activity (AC50) under setting [1] is 14.6 µM [falling, partial curve]. Moreover, the concentration at half-maximal activity (AC50) under setting [2] is 14.6 µM [falling, single point].
